The filed quantity is “Percent Effect” (%).
The controls that fix the scale are not given in the record; negative values are as filed.
This is an unselected part of the compounds tested.
A dash means the value is not listed here; it may have been measured.

Chains of the proteins cited; added tags and fusions are not shown.
UniProt P9WPC5, whole entry: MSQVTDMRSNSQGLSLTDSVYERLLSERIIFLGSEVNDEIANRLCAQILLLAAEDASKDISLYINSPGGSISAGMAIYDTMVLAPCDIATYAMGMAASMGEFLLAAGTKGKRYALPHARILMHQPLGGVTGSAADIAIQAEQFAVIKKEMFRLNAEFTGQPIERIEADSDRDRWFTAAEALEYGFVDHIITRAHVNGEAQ
UniProt P9WPC3, whole entry partner: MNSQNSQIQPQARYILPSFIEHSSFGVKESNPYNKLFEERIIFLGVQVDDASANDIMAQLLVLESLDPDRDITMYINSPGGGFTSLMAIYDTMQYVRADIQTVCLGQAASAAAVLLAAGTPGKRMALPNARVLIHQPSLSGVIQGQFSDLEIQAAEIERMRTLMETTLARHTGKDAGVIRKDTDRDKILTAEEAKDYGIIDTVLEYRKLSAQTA
UniProt I6X8D2, whole entry: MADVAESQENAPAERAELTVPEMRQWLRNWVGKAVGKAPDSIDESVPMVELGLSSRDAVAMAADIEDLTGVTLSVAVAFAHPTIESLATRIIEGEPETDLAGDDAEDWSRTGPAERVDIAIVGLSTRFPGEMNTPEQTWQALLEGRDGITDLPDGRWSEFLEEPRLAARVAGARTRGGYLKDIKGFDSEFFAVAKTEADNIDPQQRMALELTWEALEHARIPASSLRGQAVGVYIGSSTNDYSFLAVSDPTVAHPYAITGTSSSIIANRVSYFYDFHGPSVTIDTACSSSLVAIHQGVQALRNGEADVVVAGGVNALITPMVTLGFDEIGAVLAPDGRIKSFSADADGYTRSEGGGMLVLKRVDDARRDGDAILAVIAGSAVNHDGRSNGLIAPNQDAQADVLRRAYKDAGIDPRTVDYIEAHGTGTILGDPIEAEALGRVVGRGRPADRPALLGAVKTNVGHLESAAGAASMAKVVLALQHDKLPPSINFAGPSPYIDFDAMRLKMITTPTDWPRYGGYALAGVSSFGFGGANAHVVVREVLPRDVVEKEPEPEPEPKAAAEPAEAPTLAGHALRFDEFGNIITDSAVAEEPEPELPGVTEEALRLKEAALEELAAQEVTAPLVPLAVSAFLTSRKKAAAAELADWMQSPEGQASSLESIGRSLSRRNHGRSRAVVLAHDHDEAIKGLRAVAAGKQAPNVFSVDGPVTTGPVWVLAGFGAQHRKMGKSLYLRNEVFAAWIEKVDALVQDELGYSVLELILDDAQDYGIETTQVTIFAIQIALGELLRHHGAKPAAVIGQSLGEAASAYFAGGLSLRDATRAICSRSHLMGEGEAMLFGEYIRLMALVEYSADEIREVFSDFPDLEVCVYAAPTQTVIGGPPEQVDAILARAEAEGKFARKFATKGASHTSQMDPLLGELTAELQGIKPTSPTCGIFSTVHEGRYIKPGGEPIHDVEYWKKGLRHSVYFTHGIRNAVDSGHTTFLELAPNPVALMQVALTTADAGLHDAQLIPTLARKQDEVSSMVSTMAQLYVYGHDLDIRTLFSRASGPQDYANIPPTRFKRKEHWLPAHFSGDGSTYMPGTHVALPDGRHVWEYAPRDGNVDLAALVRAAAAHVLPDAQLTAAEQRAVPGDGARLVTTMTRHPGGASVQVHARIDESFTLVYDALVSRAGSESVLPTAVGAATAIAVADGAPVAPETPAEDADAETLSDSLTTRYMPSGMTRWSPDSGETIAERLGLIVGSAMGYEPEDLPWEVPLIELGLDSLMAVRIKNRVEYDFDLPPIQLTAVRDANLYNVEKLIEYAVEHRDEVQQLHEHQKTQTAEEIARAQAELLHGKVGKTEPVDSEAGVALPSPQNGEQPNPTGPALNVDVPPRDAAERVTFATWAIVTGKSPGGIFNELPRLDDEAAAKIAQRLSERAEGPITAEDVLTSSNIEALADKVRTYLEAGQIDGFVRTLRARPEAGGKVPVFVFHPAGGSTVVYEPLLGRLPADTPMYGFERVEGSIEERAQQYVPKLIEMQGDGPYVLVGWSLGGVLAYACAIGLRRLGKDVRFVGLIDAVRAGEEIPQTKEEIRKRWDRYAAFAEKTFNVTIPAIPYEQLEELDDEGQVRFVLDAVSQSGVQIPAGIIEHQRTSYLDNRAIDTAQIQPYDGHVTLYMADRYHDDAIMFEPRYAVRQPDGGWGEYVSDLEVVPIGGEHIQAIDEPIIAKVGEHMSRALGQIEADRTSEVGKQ

A: 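ClpP1P2, Mycobacterium tuberculosis (UniProt P9WPC5 and UniProt P9WPC3). Protease assay of ClpP1P2, read by the AMC dye that it sets free. Concentration: 50 µM. Higher reads as stronger inhibition, judged from the few compounds that gave an IC50. Most other retested compounds had strongly negative values. About 69,000 compounds were tested under these conditions; 0.015% (about 10) showed 50% or more at least once.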
B: 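Enzyme assay of the thioesterase domain of polyketide synthase 13; the read-out is not stated. Target: Polyketide synthase Pks13, Mycobacterium tuberculosis (UniProt I6X8D2). Concentration: 30 µM. Higher reads as stronger inhibition (inferred from which compounds were picked for retests). Of about 67,000 compounds tested this way, about 300 (0.46%) reached 50% or more in at least one test.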

structure | A | B
Cn1ccc2c(C(=O)NCCCN3CCCC3)cccc21 | -2.462% | -14.67%
O=C(Cc1ccc2c(c1)CCO2)N1CCN(c2cnccn2)CC1 | -2.777% | -9.926%
Cc1ccc(-c2nc(CCNC(=O)C3CC(=O)N(C)C3)cs2)cc1 (stereo not shown) | -4.735% | 4.231%
Cn1ccnc1CC1CCCN(Cc2noc(C3CC3)n2)C1 (stereo not shown) | -7.719% | -5.459%
COc1ccc(C2SC(C)=Nc3c2c(=O)[nH]n3C2CCCC2)cc1O (stereo not shown) | -2.102% | -14.06%
COCCN1CCN(CC(=O)N(C)Cc2cccc(F)c2)CC1C (stereo not shown) | 14.3% | -11.05%
CNC(=O)C1CCCN(C(=O)c2cncs2)C1 (stereo not shown) | -13.68% | -12.03%
Fc1ccc(N2CCCN(Cc3ccc(-c4cc[nH]n4)o3)CC2)cc1 | -0.7423% | -8.798%
Cc1ccc(N2CCCC(NCC(=O)NC3CCOCC3)C2)nn1 (stereo not shown) | 3.92% | -7.645%
CC(C)C1=NOC2(CCN(S(C)(=O)=O)CC2)C1 | -3.992% | -0.06886%
Cc1ccc(N2CCCC(N3CCC4(CC3)OCCO4)C2=O)cc1 (stereo not shown) | -2.012% | -9.962%
Cc1ccc(C2(O)CCN(C(=O)CCn3c(C)cccc3=O)CC2)nc1 | 18.31% | 4.211%
COCC(=O)N1CCC(Oc2cccc(C)c2)CC1 | 1.028% | -4.416%
CC(NC(=O)N(C)Cc1ccsc1)c1ccc2c(c1)CCC(=O)N2 (stereo not shown) | 11.82% | -4.628%
O=C1CCCN1CC1CN(C(=O)N2CCOCC2)Cc2nccn2C1 (stereo not shown) | 12.62% | -14.68%
Cc1cc(C2CCC2)nc(N(C)CCc2ccccn2)n1 | -0.8915% | -18.76%
O=C(O)c1cnc(N2CCC(c3nccn3CC3CC3)CC2)c(Cl)c1 | -4.537% | -19.77%
CC1(C)[C@H]2CC=C(CN3CCCn4nc(CCC(=O)O)cc4C3)[C@@H]1C2 | -3.107% | -14.04%
CCCn1cnc2c1CN(C(=O)c1ccc(F)cc1)[C@H](C(=O)OC)C2 | 5.183% | -17.2%
COc1ccc(OCc2cc(C(=O)N3CCN[C@H](C)C3)n[nH]2)c(Cl)c1 | -12% | -1.218%
CNC(=O)c1ccc(C2CN(c3cc(C)nc(N)n3)CCO2)nc1 (stereo not shown) | -0.7938% | 4.315%
CN(C)S(=O)(=O)N1CC[C@]2(C[C@@H](OCc3ccccn3)CO2)C1 | 2.831% | -49.72%
O=S(=O)(c1ccccc1)N1CCCC(c2nccs2)C1 (stereo not shown) | -5.22% | -4.679%
CCn1nc(C)c2nnn(CC(=O)Nc3cccc(F)c3)c(=O)c21 | -10.44% | -8.024%
Cc1nc(CN(C)c2nccc(C(F)(F)F)n2)cs1 | 0.3021% | -19.23%
COCCN(Cc1c(C)nn(C)c1C)C(=O)C1COc2ccccc2C1 (stereo not shown) | -17.17% | -41.47%
COCCNc1nc(-c2ccc(S(=O)(=O)N3CCCCC3)cc2)cs1 | 8.525% | -17.24%
Cc1ccc(CNCc2nnc3n2CC(C(F)(F)F)CC3)o1 (stereo not shown) | -1.677% | -7.617%
O=C(c1ccc2c(c1)CCC2)N1CCn2ncnc2C1 | -24.73% | -3.252%
CC1(NC(=O)Cc2csc(C(C)(C)C)n2)CCS(=O)(=O)C1 (stereo not shown) | -6.383% | -0.3127%
CC(C)Cc1noc(C2CCCCN2C(=O)CCc2cnn(C)c2)n1 (stereo not shown) | -4.499% | -30.5%
Cc1ccc2c(C(=O)N(C)C)cc(-c3cnn(CCO)c3)nc2c1C | -10.28% | 4.851%
CCN(Cc1nc(COC)no1)Cc1cc2ccc(F)cc2[nH]c1=O | -9.102% | -17.17%
COCCN1CCC2(CCCN(C(=O)c3cnoc3C)C2)C1=O (stereo not shown) | 5.503% | -1.17%
CC(C)Cc1noc(CC2CCS(=O)(=O)C2)n1 (stereo not shown) | 11.18% | -20.47%
O=C(Nc1cccnc1)[C@H]1C[C@@H]2CCN(Cc3nccs3)C[C@@H]2O1 | 11.71% | -18.94%
CNS(=O)(=O)c1ccc(CN2CCC(c3ccncc3)CC2)cc1 | -2.82% | -25.82%
CN(CCc1ncnn1-c1ccccc1Cl)C1CCS(=O)(=O)C1 (stereo not shown) | 9.08% | 11.07%
O=C(NCc1ccco1)[C@@]12CCO[C@@H]1CCN(C1CCC1)C2 | -7.227% | -31.31%
COCCn1cnc(-c2cc(C(=O)NC(C)C)c3ccccn23)c1 | -125.5% | 19.69%
O=C(NC1CCCC1)N1C[C@H]2CN(c3ccccn3)C[C@@]2(C(=O)O)C1 | -4.321% | 7.331%
Cc1ccc2c(c1)c(CNC(=O)C1CCN(C(=O)C3CC3)CC1)nn2C | 9.245% | -34.35%
OCCn1nnnc1Cc1ccc(Br)cc1 | 6.518% | -46.53%
COc1c(C2CCCN2C(=O)c2cscn2)c(C)nn1C (stereo not shown) | -4.902% | -12.36%
CCCS(=O)(=O)N1CCO[C@H]2[C@H](OCc3ccccn3)CC[C@@H]21 | 7.663% | -7.988%
CCCNc1ncc(CN2CCC3(CC2)CNC(=O)C3)cn1 | -26.9% | 0.8152%
c1ccc(CN2CCc3ncnc(C4CC4)c3CC2)nc1 | -4.244% | -10.02%
O=C(NCCNc1ncccn1)C1CCN(CC(F)(F)F)CC1 | 8.214% | 0.3418%
C[C@@H]1CN(C(=O)c2ccc(C#N)nc2)CC[C@@]1(O)C1CCOCC1 | -11.44% | -17.45%
Cc1ccc(=O)n(Cc2nc(C(C)OCC(C)C)no2)n1 (stereo not shown) | 1.015% | -7.127%
Cc1ncc(CN2CCc3nc4cc(C(C)(C)C)nn4c(O)c3C2)n1C | -57.34% | -
O=C(Nc1cc(F)ccc1OCC1CCCO1)c1ccoc1 (stereo not shown) | -6.495% | -6.772%
CCCc1ccc(CN2CCN(C(=O)NCC)[C@H]3CS(=O)(=O)C[C@H]32)o1 | -14.79% | -17.8%
Cn1ccnc1CN1CCN(Cc2ccc(C#N)cc2)CC1 | -33.87% | -9.164%
Cc1ccccc1CN1C[C@@H](CN(C)CCO)[C@@H](CO)C1 | 4.064% | -11.56%
Cc1oc(-c2cccc(F)c2F)nc1CN(C)CCC(C)(C)O | 7% | -11.97%
Cc1[nH]ncc1C(=O)N(CC(C)C)CC(O)c1ccc(F)cc1 (stereo not shown) | 11.78% | -
Cc1cnn(C2CCCN(C(=O)Cc3ccc(C)s3)C2)c1 (stereo not shown) | -19.18% | -7.945%
Cc1cc(CN2CCC(C3CCN(CCc4ccccc4)C3)CC2)[nH]n1 (stereo not shown) | -10.38% | -9.521%
Cc1noc(C)c1C(=O)N1CCCN(C)c2ccc(Cl)cc21 | -1.163% | -11.05%
COc1cccc(C(NCc2ccc(SC)cc2)c2nccn2C)c1 (stereo not shown) | -25.37% | -15.99%
CC(C)c1cnc(CN2CCCS2(=O)=O)o1 | -9.797% | -14.55%
COCCS(=O)(=O)NC(C)c1ccccc1Br (stereo not shown) | -11.32% | -10.17%
Cn1ccnc1CN1CCC2(CC1)COC2 | -4.712% | 16.06%
Cc1nn(C)c(N(C)C)c1CNCc1ccnn1C | -5.221% | -6.693%
Cc1noc(-c2ccc(N(C)Cc3ccncn3)nc2)n1 | -4.913% | 12.53%
c1coc(CN2CCn3c(nc4ccccc43)C2)c1 | -10.15% | 1.933%
Cc1ccc(C(=O)N2CCO[C@H]3[C@@H](OCc4ccccn4)CC[C@@H]32)o1 | -8.919% | -6.048%
CC(C)(C)n1cc(NCc2cscn2)cn1 | 2.486% | 1.242%
O=C(c1cccc(C2CCNC2)c1)N1CCC(c2ccncc2)CC1 (stereo not shown) | -11.65% | -6.368%
O=C(CCN1CCOC(Cn2cccn2)C1)NC1CCCC1 (stereo not shown) | 3.462% | -7.053%

For reference, 8 entries once more:

structure	A	B
Cc1ccc2c(c1)c(CNC(=O)C1CCN(C(=O)C3CC3)CC1)nn2C	9.245%	-34.35%
Cc1ccc(C(=O)N2CCO[C@H]3[C@@H](OCc4ccccn4)CC[C@@H]32)o1	-8.919%	-6.048%
O=C(CCN1CCOC(Cn2cccn2)C1)NC1CCCC1 (stereo not shown)	3.462%	-7.053%
O=C(NC1CCCC1)N1C[C@H]2CN(c3ccccn3)C[C@@]2(C(=O)O)C1	-4.321%	7.331%
COCCNc1nc(-c2ccc(S(=O)(=O)N3CCCCC3)cc2)cs1	8.525%	-17.24%
Cc1[nH]ncc1C(=O)N(CC(C)C)CC(O)c1ccc(F)cc1 (stereo not shown)	11.78%	-
Cc1ccc2c(C(=O)N(C)C)cc(-c3cnn(CCO)c3)nc2c1C	-10.28%	4.851%
COCCN1CCN(CC(=O)N(C)Cc2cccc(F)c2)CC1C (stereo not shown)	14.3%	-11.05%

From ChEMBL document CHEMBL3988442, “University of Dundee, Small-Polar-MMV Screening Library” (2021).